Where “and” joins values, the source holds several entries; their conditions need not be identical. Identical values can stand only once. Counter-ions that a name gives are not always drawn. The list shows a part of the results. Repeats in this data set agree poorly, so a single value says little.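 HEK293T cells were given each compound shortly before transfection with a reporter in which red mCherry is followed by the SARS-CoV-2 frameshift element and then GFP in the −1 frame, so GFP appears only after frameshifting.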
Each molecule was assayed on SARS-CoV-2 -1 PRF reporter mCherry-FSE-GFP(-1) (assay: mCherry (red) intensity as percent of control; higher = higher upstream reporter expression). Details: 10 µM; 24 h; HEK293T.
O=P(O)(O)C(O)(Cc1cnc2ccccn12)P(=O)(O)O [minodronic acid] gave a mCherry of 98.8%.
CN1CCN(c2c(F)cc3c(=O)c(C(=O)O)cn4c3c2OCN4C)CC1 [marbofloxacin] showed a mCherry of 108%.
For CC1(C)CCC(C)(C)c2cc(NC(=O)c3ccc(C(=O)O)cc3)ccc21 [tamibarotene], the mCherry was 110%.
In the case of CC(N)C(=O)OC(C)(C)Cc1ccc(Cl)cc1 (stereo not given) [alaproclate], the mCherry is reported as 123%.
CCCC(C(=O)OCCN(CC)CC)(c1ccccc1)c1ccccc1 was tested, and the mCherry was 118%.
With NCCCC(N)(C(=O)O)C(F)F (stereo not given) [eflornithine] the mCherry was 118% and 94.6%.
Molecule CNCCCC1(c2ccccc2)SC(C)(C)c2ccccc21 (stereo not given) [talsupram] has a mCherry of 93.3%.
O=C1CN2Cc3c(ccc(Cl)c3Cl)N=C2N1 [Anagrelide] gave a mCherry of 84.6%.
CCCCCOC(=O)c1ccc(N(C)C)cc1 [padimate] showed a mCherry of 102%.
In the case of CN(c1nccc(=O)[nH]1)C1CCN(c2nc3ccccc3n2Cc2ccc(F)cc2)CC1 [mizolastine], the mCherry is reported as 87.2%.
In the case of O=C(Nc1cccc2c(=O)cc(-c3nnn[nH]3)oc12)c1ccc(OCCCCc2ccccc2)cc1 [Pranlukast], the mCherry is reported as 85.4% and 105%.
For CS(=O)(=O)c1ccc([C@@H](O)[C@@H](CF)NC(=O)C(Cl)Cl)cc1 [florfenicol], the mCherry was 88.7%.
CC(CCc1ccc(O)cc1)NCC(O)c1ccc(O)cc1 (stereo not given) gave a mCherry of 112%.
CC(=O)Oc1cccc2c1C(=O)c1c(OC(C)=O)cc(C(=O)O)cc1C2=O [diacerein] showed a mCherry of 84.3%.
Clc1cccc(C(c2ccc3[nH]cnc3c2)n2ccnc2)c1 (stereo not given) [liarozole] was tested, and the mCherry was 100%.
Molecule CCC(C)CCCCC(=O)NC(CCN)C(=O)NC(C(=O)NC(CCN)C(=O)NC1CCNC(=O)C(C(C)O)NC(=O)C(CCN)NC(=O)C(CCN)NC(=O)C(CC(C)C)NC(=O)C(Cc2ccccc2)NC(=O)C(CCN)NC1=O)C(C)O (stereo not given) has a mCherry of 88.9%.
In the case of O=c1[nH]c2ccccc2c(=O)n1CCCN1CCN(c2ccccc2)CC1 [pelanserin], the mCherry is reported as 95.1%.
In the case of O=C(O)CCCC[C@@H]1SC[C@@H]2NC(=O)N[C@@H]21 [biotin], the mCherry is reported as 103% and 97.6%.
For CCOC(=O)OC(C)OC1=C(C(=O)Nc2ccccn2)N(C)S(=O)(=O)c2ccccc21 (stereo not given) [ampiroxicam], the mCherry was 56.2%.
Cc1cc2c(s1)Nc1ccc(F)cc1N=C2N1CCN(C)CC1 [flumezapine] gave a mCherry of 68.7%.
With N[C@@H](CCC(=O)O)C(=O)O [glutamic acid] the mCherry was 60.5%.
In the case of O=C(CCNNC(=O)c1ccncc1)NCc1ccccc1 [nialamide], the mCherry is reported as 94.9% and 91.1%.
For NC[C@H]1O[C@H](O[C@H]2[C@H](O[C@@H]3O[C@H](CO)[C@@H](O)[C@H]3O)[C@@H](O)[C@H](N)C[C@@H]2N)[C@H](N)[C@@H](O)[C@@H]1O, the mCherry was 108%.
Work on CO[C@H]1/C=C/O[C@@]2(C)Oc3c(C)c(O)c4c(O)c(c5c(nc6cc(C)ccn65)c4c3C2=O)NC(=O)/C(C)=C\C=C\[C@H](C)[C@H](O)[C@@H](C)[C@@H](O)[C@@H](C)[C@H](OC(C)=O)[C@@H]1C yielded a mCherry of 90.3%.
In the case of Cn1c(=O)cc(N2CCC[C@@H](N)C2)n(Cc2ccccc2C#N)c1=O [Alogliptin], the mCherry is reported as 105%.
CC1(C)S[C@@H]2[C@H](NC(=O)C3(N)CCCCC3)C(=O)N2[C@H]1C(=O)O [ciclacillin] gave a mCherry of 90.5%.
Work on CCN1CCC(=C2c3ccccc3CCc3ccccc32)C1C (stereo not given) [piroheptine] yielded a mCherry of 98.3%.
CN1CC(=O)N=C1N gave a mCherry of 89.7%.
CC1CC(=O)NN=C1c1ccc(NN=C(C#N)C#N)cc1 (stereo not given) [simendan] gave a mCherry of 115%.
CCC(=O)NC[C@@H]1C[C@H]1c1cccc2c1CCO2 [Tasimelteon] gave a mCherry of 91.9%.
CCCC1C(=O)N2C(N(C)C)=Nc3ccc(C)cc3N2C1=O (stereo not given) [azapropazone] showed a mCherry of 66.6%.
CC(C(O)c1ccc(O)cc1)N1CCC(Cc2ccccc2)CC1 (stereo not given) [Ifenprodil tartrate] was tested, and the mCherry was 100%.
With CCCCCN(CCCCC)C(=O)C(CCC(=O)O)NC(=O)c1ccc(Cl)c(Cl)c1 (stereo not given) [lorglumide] the mCherry was 105% and 95.4%.
With CN(C)S(=O)(=O)c1ccc2c(c1)N(CCCN1CCC(CCO)CC1)c1ccccc1S2 [pipotiazine] the mCherry was 84.9%.
O=C1NC(=O)C(C(=O)Nc2ccc(Cl)cc2)c2ccccc21 (stereo not given) [tesicam] was tested, and the mCherry was 63.4%.
O=C(O)Cc1ccc(-c2ccccc2)cc1 [felbinac] gave a mCherry of 98.3%.
For COC(=O)Nc1nc2cc(C(=O)c3ccc(F)cc3)ccc2[nH]1 [flubendazole], the mCherry was 27.9%.
Molecule Cc1cc(C)c(NC(=O)CN(CC(=O)O)CC(=O)O)c(C)c1Br [mebrofenin] has a mCherry of 85.8%.
CN[C@H](CC(C)C)C(=O)N[C@H]1C(=O)N[C@@H](CC(N)=O)C(=O)N[C@H]2C(=O)N[C@H]3C(=O)N[C@H](C(=O)N[C@H](C(=O)O)c4cc(O)cc(O)c4-c4cc3ccc4O)[C@H](O)c3ccc(c(Cl)c3)Oc3cc2cc(c3O[C@@H]2O[C@H](CO)[C@@H](O)[C@H](O)[C@H]2O[C@H]2C[C@](C)(N)[C@H](O)[C@H](C)O2)Oc2ccc(cc2Cl)[C@H]1O [Vancocin] showed a mCherry of 106%.
With OCC(S)CS (stereo not given) [dimercaprol] the mCherry was 65.3%.
